In the assay the test system is C3AKF1 mice, hamster liver cystadenocarcinoma s.c., tumor weight T/C. As to the kind of experiment: NCI In Vivo Anticancer Drug Screen. Data for tumor model Cystadenocarcinoma, Liver (No. 1) (Hamster) (subcutaneous) in C3AKF1 (CHKRF1) mice. The following applies: T/C endpoint: mean tumor weight, higher T/C = larger tumour; for T/C: evaluated on day 15. On the procedure: The antitumor activity of compounds was measured in mice bearing transplantable tumors. Survival or tumor size were measured and the results are expressed as the measurement made in the treated group (T) divided by the measurement made in the vehicle treated control group (C). The tumor model used in this assay is Cystadenocarcinoma, Liver (No. 1) (Hamster) (subcutaneous) in C3AKF1 (CHKRF1) mice

[1] abbreviates: dose: 75.0 mg/kg/injection, schedule: Q01DX010 (ip), vehicle: carboxymethylcellulose (CMC).
Setting [2] is: dose: 150.0 mg/kg/injection, schedule: Q01DX010 (ip), vehicle: carboxymethylcellulose (CMC).
The mark [3] stands for this setting: dose: 25.0 mg/kg/injection, schedule: Q01DX010 (ip), vehicle: carboxymethylcellulose (CMC).
Where [4] appears, read: dose: 200.0 mg/kg/injection, schedule: Q01DX010 (ip), vehicle: carboxymethylcellulose (CMC).
Setting [5] is: dose: 80.0 mg/kg/injection, schedule: Q01DX010 (ip), vehicle: carboxymethylcellulose (CMC).
Where [6] appears, read: dose: 7.5 mg/kg/injection, schedule: Q#A X010 (ip), vehicle: carboxymethylcellulose (CMC).
Setting [7] is: dose: 15.5 mg/kg/injection, schedule: Q#A X010 (ip), vehicle: carboxymethylcellulose (CMC).
Setting [8] is: dose: 31.0 mg/kg/injection, schedule: Q#A X010 (ip), vehicle: carboxymethylcellulose (CMC).
Where [9] appears, read: dose: 62.5 mg/kg/injection, schedule: Q#A X010 (ip), vehicle: carboxymethylcellulose (CMC).
Setting [10] is: dose: 125.0 mg/kg/injection, schedule: Q#A X010 (ip), vehicle: carboxymethylcellulose (CMC).
The mark [11] stands for this setting: dose: 250.0 mg/kg/injection, schedule: Q#A X010 (ip), vehicle: carboxymethylcellulose (CMC).
[12] abbreviates: dose: 10.0 mg/kg/injection, schedule: Q01DX010 (ip), vehicle: carboxymethylcellulose (CMC).

The list does not hold the whole screen: it is rich in T/C values a quarter to a half above the control, in often repeated tests (any T/C) and in doses without a T/C. Other doses and runs of a compound stand elsewhere. T/C: endpoint of the treated group in % of that of the vehicle group. Schedules are NCI's codes, read here as Q, the interval in days (D) or hours (H), X, the number of doses. Some schedule codes hold Z or #, which are not explained here. Some T/C values carry the count of animals alive at the toxicity check (mostly the fifth day); without a count, all were alive then. Some entries give survivors of the animals treated and no T/C: the source holds a T/C of zero for them, seemingly a mark for toxic or unscored doses. Counts of survivors are from the toxicity check (mostly the fifth day) where no day follows; animals may have died later. Counts like (3×) count equal records among those shown. Some entries hold several experiments; the results are listed from low to high. Some molecules as drawn cover several salts, stereoisomers or complexes of the source; a dose is that of the sample tested.

Take `NC(=O)/C=C/C(=O)O` (tested in a mixture with another compound): the survivor count is listed as 0 of 6 (dose: 62.5 mg/kg/injection, schedule: Q#A X010 (ip), vehicle: saline); 0 of 6 (dose: 125.0 mg/kg/injection, schedule: Q#A X010 (ip), vehicle: saline); 0 of 6 (dose: 250.0 mg/kg/injection, schedule: Q#A X010 (ip), vehicle: saline).
`CCC[CH2][Sn]([CH2]CCC)([CH2]CCC)[O]C(=O)CC[S][Sn]([CH2]CCC)([CH2]CCC)[CH2]CCC`: the survivor count (dose: 48.0 mg/kg/injection, schedule: Q01DX010 (ip), vehicle: saline) was 1 of 7.
Regarding `CC1CC(C)OS(=O)O1` (stereo unspecified), the survivor count is listed as 0 of 6 (dose: 100.0 mg/kg/injection, schedule: Q01DX010 (ip), vehicle: saline) and 0 of 6 (dose: 150.0 mg/kg/injection, schedule: Q01DX010 (ip), vehicle: saline).
Take `Clc1ccc2c(Cl)ncnc2c1`: the survivor count is reported as 4 of 7 (dose: 19.0 mg/kg/injection, schedule: Q01DX010 (ip), vehicle: carboxymethylcellulose (CMC)); 0 of 7 (dose: 37.5 mg/kg/injection, schedule: Q01DX010 (ip), vehicle: carboxymethylcellulose (CMC)); 0 of 7 under setting [1]; 0 of 7 under setting [2].
With `CCc1c(CC(=O)O)c2cc(C)ccc2n1Cc1ccc(Cl)cc1`, the survivor count is on record as 1 of 6 under setting [3] and 3 of 6 under setting [4].
As for `[I][Hg][CH2]C1COCC([CH2][Hg][I])O1.[I][Hg][CH2]C1COCC([CH2][Hg][I])O1` (stereo unspecified), under setting [5], the survivor count is on record as 0 of 6.
Take `Clc1ncnc2c1ncn2C1CCCO1` (stereo unspecified): the T/C (dose: 50.0 mg/kg/injection, schedule: Q01DX010 (ip), vehicle: carboxymethylcellulose (CMC)) was 129 % of control. The survivor count (dose: 800.0 mg/kg/injection, schedule: Q01DX010 (ip), vehicle: carboxymethylcellulose (CMC)) is on record as 0 of 6 and the survivor count (dose: 1600.0 mg/kg/injection, schedule: Q01DX010 (ip), vehicle: carboxymethylcellulose (CMC)) is reported as 0 of 6.
In the case of `CCOC(=O)C(Cc1ccc(N(CCCl)CCCl)cc1)NC=O` (stereo unspecified), the survivor count runs as follows: under setting [5], 1 of 6; (dose: 160.0 mg/kg/injection, schedule: Q01DX010 (ip), vehicle: carboxymethylcellulose (CMC)) 0 of 6.
Take `Cc1ccc(N=NN(C)C)cc1`: the survivor count was 1 of 7 (dose: 100.0 mg/kg/injection, schedule: Q01DX010 (ip), vehicle: carboxymethylcellulose (CMC)) and 1 of 7 under setting [4].
As to `CCCCCCCCCCCCn1c(C)nc2ccccc21`, where the note is “dose: 1.0 mg/kg/injection, schedule: Q01DX010 (ip), vehicle: carboxymethylcellulose (CMC)”, the survivor count is recorded as 3 of 6. Moreover, the T/C (dose: 4.0 mg/kg/injection, schedule: Q01DX010 (ip), vehicle: carboxymethylcellulose (CMC)) was 134 % of control.
In the case of `Cc1nc(N)nc(N)c1-c1ccc(Cl)c(Cl)c1`, the survivor count (dose: 6.0 mg/kg/injection, schedule: Q01DX010 (ip), vehicle: carboxymethylcellulose (CMC)) is 0 of 6.
`O=C1C=CC(=Nc2ccc(O)c3ncccc23)c2cccnc21`: the survivor count (dose: 12.5 mg/kg/injection, schedule: Q01DX010 (ip), vehicle: carboxymethylcellulose (CMC)) is on record as 1 of 6 and the survivor count under setting [3] is 0 of 6.
Consider `CC(C)CCSc1nc(N)nc2nc[nH]c12`, for which the survivor count (dose: 360.0 mg/kg/injection, schedule: Q01DX010 (ip), vehicle: carboxymethylcellulose (CMC)) is 0 of 6.
As to `COC(=O)/C=C\C(=O)O` (tested in a mixture with another compound), the T/C (dose: 1.5 mg/kg/injection, schedule: Q#A X020 (ip), vehicle: carboxymethylcellulose (CMC)) is 148 % of control. For the same molecule, the survivor count under setting [6] was 0 of 6; the survivor count under setting [7] was 2 of 6; the survivor count under setting [8] was 0 of 6; the survivor count under setting [9] was 0 of 6; the survivor count under setting [10] is 0 of 6; the survivor count under setting [11] is on record as 0 of 6.
Take `O=C1C=CC(=O)O1` (tested in a mixture with another compound): the survivor count under setting [6] is recorded as 3 of 6; the survivor count (dose: 7.5 mg/kg/injection, schedule: Q#A X020 (ip), vehicle: carboxymethylcellulose (CMC)) is reported as 3 of 6; the survivor count (dose: 15.0 mg/kg/injection, schedule: Q#A X020 (ip), vehicle: carboxymethylcellulose (CMC)) was 1 of 6; the survivor count under setting [7] is 0 of 6 and 2 of 6; the survivor count under setting [8] is given as 0 of 6, 1 of 6, 2 of 6; the survivor count under setting [9] is 0 of 6, 1 of 6, 3 of 6. Further, the survivor count under setting [10] was 0 of 6 (2×) and 2 of 6; the survivor count under setting [11] was 0 of 6 (3×). Besides, under setting [8], the T/C was 131 % of control.
`CCCCCCCCCCCC[n+]1cccc2ccccc21`: the survivor count (dose: 2.0 mg/kg/injection, schedule: Q01DX010 (ip), vehicle: carboxymethylcellulose (CMC)) is given as 0 of 6.
As to `CCN(CC)CCNc1ccc([N+](=O)[O-])c2sc3ccccc3c(=O)c12`, the survivor count reads like this: (dose: 80.0 mg/kg/injection, schedule: Q01DX010 (ip), vehicle: saline) 3 of 6; (dose: 160.0 mg/kg/injection, schedule: Q01DX010 (ip), vehicle: saline) 0 of 6.
As to `CCCC(=O)NC1=C(N2CC2)C(=O)C(NC(=O)CCC)=C(N2CC2)C1=O`, the survivor count is, setting by setting: (dose: 1.7 mg/kg/injection, schedule: Q01DX010 (ip), vehicle: saline) 2 of 7; (dose: 4.0 mg/kg/injection, schedule: Q01DX010 (ip), vehicle: saline) 0 of 5; (dose: 6.0 mg/kg/injection, schedule: Q01DX010 (ip), vehicle: saline) 0 of 7.
For `Nc1ncnc2c1ncn2C1CCCO1` (stereo unspecified), the survivor count was 3 of 6 under setting [4]; 1 of 6 (dose: 400.0 mg/kg/injection, schedule: Q01DX010 (ip), vehicle: carboxymethylcellulose (CMC)); 0 of 6 (dose: 600.0 mg/kg/injection, schedule: Q01DX010 (ip), vehicle: carboxymethylcellulose (CMC)).
As to `NC(Cc1ccc(N(CCCl)CCCl)cc1)C(=O)O` (stereo unspecified), the survivor count is 0 of 6 (dose: 8.0 mg/kg/injection, schedule: Q01DX010 (ip), vehicle: carboxymethylcellulose (CMC)); 1 of 6 under setting [12]; 0 of 6 (dose: 16.0 mg/kg/injection, schedule: Q01DX010 (ip), vehicle: carboxymethylcellulose (CMC)); 0 of 6 (dose: 20.0 mg/kg/injection, schedule: Q01DX010 (ip), vehicle: carboxymethylcellulose (CMC)).
`O=CC(O)CO` (stereo unspecified): the T/C (dose: 500.0 mg/kg/injection, schedule: Q01DX010 (ip), vehicle: carboxymethylcellulose (CMC)) was 131 % of control [5 of 7 alive]. Also, the survivor count (dose: 1000.0 mg/kg/injection, schedule: Q01DX010 (ip), vehicle: carboxymethylcellulose (CMC)) is on record as 1 of 7.
Take `CCCCCCCCCCCCCCCCC(C(=O)O)C(O)(CC(=O)O)C(=O)O` (stereo unspecified): the survivor count under setting [1] is on record as 0 of 7 and the survivor count under setting [2] was 0 of 7.
Regarding `NC(=O)c1ccc(NC(=O)CCC(=O)Nc2ccc(C(N)=O)cn2)nc1`, the survivor count by setting is: (dose: 5.0 mg/kg/injection, schedule: Q01DX010 (ip), vehicle: carboxymethylcellulose (CMC)) 0 of 7; under setting [12], 0 of 7.

Values taken from PubChem BioAssay AID234 (DTP/NCI, 2004).
